PubChem BioAssay (NCI)
Shown are results outside the selection of hits, which stands elsewhere. Active and inactive are the calls of the source. No stated cut-off is given here; in the data, active means growth inhibition above about 70%; inactive means the rest.

Assays:
[1] = NCI Yeast Anticancer Drug Screen. Data for the rad52 strain (AID 147);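 further: 0% = growth of vehicle-treated control cultures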; details: S. cerevisiae rad52 mutant growth inhibition, stronger effect = higher value
How it was run: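 Growth of repair-deficient yeast cells was compared between compound-treated and vehicle-treated cultures to give percent inhibition.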

[2] = NCI Yeast Anticancer Drug Screen. Data for the wt1 strain (AID 149);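 further: 0% = growth of vehicle-treated wt1 cultures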; details: S. cerevisiae wt1 strain (SPY 50644) growth inhibition, stronger effect = higher value
How it was run: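 Growth inhibition read against vehicle controls after compound exposure of the wt1 yeast strain.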

[3] = NCI Yeast Anticancer Drug Screen. Data for the rad50EPP+ strain (AID 151);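 further: 0% = growth of vehicle-treated control cultures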; details: S. cerevisiae rad50 mutant strain, stronger effect = higher value
How it was run: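 Measured: growth inhibition of rad50EPP+ yeast. Reference: vehicle-treated controls. Screen uses strains with defined genetic alterations in DNA damage repair or cell cycle control.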

[4] = NCI Yeast Anticancer Drug Screen. Data for the mgt1 strain (AID 153); details: S. cerevisiae mgt1 mutant growth inhibition, stronger effect = higher value
How it was run: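 Compounds were applied to mgt1 mutant yeast, and growth was then compared against vehicle-treated control cultures to give percent inhibition.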

[5] = NCI Yeast Anticancer Drug Screen. Data for the rad14 strain (AID 159);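 further: 0% = growth of vehicle-treated control cultures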; details: S. cerevisiae rad14 strain growth inhibition, stronger effect = higher value
How it was run: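 Growth inhibition vs vehicle controls; genetically altered yeast strain (DNA damage repair defect) treated with test compounds.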

[6] = NCI Yeast Anticancer Drug Screen. Data for the CLN2oe strain (AID 163);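 further: 0% = growth of vehicle-only control cultures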; details: S. cerevisiae CLN2oe strain, stronger effect = higher value
How it was run: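 Cells of an engineered yeast line with disturbed cell-cycle regulation are treated with compound. Inhibition of growth is then calculated relative to the vehicle-treated reference.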

[7] = NCI Yeast Anticancer Drug Screen. Data for the wt2 strain (AID 169);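 further: 0% = growth of vehicle-treated yeast cultures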; details: S. cerevisiae wt2 strain growth inhibition, stronger effect = higher value
How it was run: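 Growth of compound-treated yeast is measured and expressed as inhibition relative to vehicle-only controls.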

[8] = NCI Yeast Anticancer Drug Screen. Data for the mlh1 strain (AID 171);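 further: 0% = growth of vehicle-treated control cultures of the same strain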; details: S. cerevisiae mlh1 strain growth inhibition, stronger effect = higher value
How it was run: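 Test agents were incubated with yeast bearing a defined DNA damage repair or cell cycle control alteration; values are growth inhibition normalised to vehicle-treated cultures.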

[9] = NCI Yeast Anticancer Drug Screen. Data for the sgs1 strain (AID 173);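 further: 0% = growth of vehicle-only control cultures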; details: S. cerevisiae sgs1 mutant, stronger effect = higher value
How it was run: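 Strain with an altered DNA repair or cell cycle pathway exposed to compound. Growth then measured. Value = inhibition versus vehicle control.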

[10] = NCI Yeast Anticancer Drug Screen. Data for the rad18 strain (AID 177); details: S. cerevisiae rad18 mutant growth inhibition, stronger effect = higher value
How it was run: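 DNA-repair-defective yeast; compound treatment; growth inhibition scored against vehicle.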

Measured: growth inhibition

CC[C@]1(O)C[C@H]2CN(CCc3c([nH]c4ccccc34)[C@@](C(=O)OC)(c3cc4c(cc3OC)N(C=O)[C@H]3[C@@](O)(C(=O)OC)[C@H](OC(C)=O)[C@]5(CC)C=CCN6CC[C@]43[C@@H]65)C2)C1
inactive: [1]; at 1.2 µM -1% | [1]; at 3.7 µM -1% | [1]; at 11.0 µM 1% | [1]; at 33.0 µM -1% | [1]; at 100.0 µM -3% | [2]; at 1.2 µM 0% | [2]; at 3.7 µM -1% | [2]; at 11.0 µM -3% | [2]; at 33.0 µM -8% | [2]; at 100.0 µM -21% | [3]; at 1.2 µM -2% | [3]; at 3.7 µM -4% | [3]; at 11.0 µM -4% | [3]; at 33.0 µM -2% | [3]; at 100.0 µM -7% | [4]; at 1.2 µM -5% | [4]; at 3.7 µM -3% | [4]; at 11.0 µM -3% | [4]; at 33.0 µM -4% | [4]; at 100.0 µM -7% | [5]; at 1.2 µM -2% | [5]; at 3.7 µM -4% | [5]; at 11.0 µM -4% | [5]; at 33.0 µM -2% | [5]; at 100.0 µM -3% | [6]; at 1.2 µM -8% | [6]; at 3.7 µM -2% | [6]; at 11.0 µM -3% | [6]; at 33.0 µM -9% | [6]; at 100.0 µM -5% | [7]; at 1.2 µM -4% | [7]; at 3.7 µM -4% | [7]; at 11.0 µM -4% | [7]; at 33.0 µM -4% | [7]; at 100.0 µM -5% | [8]; at 1.2 µM -2% | [8]; at 3.7 µM -2% | [8]; at 11.0 µM -2% | [8]; at 33.0 µM -3% | [8]; at 100.0 µM -5% | [9]; at 1.2 µM -1% | [9]; at 3.7 µM -2% | [9]; at 11.0 µM -2% | [9]; at 33.0 µM -2% | [9]; at 100.0 µM -5% | [10]; at 1.2 µM -3% | [10]; at 3.7 µM -6% | [10]; at 11.0 µM -8% | [10]; at 33.0 µM -13% | [10]; at 100.0 µM -12%

CCOC(=O)Cc1[nH]c(C(=O)OCC)c(C)c1C(=O)OCC
inactive: [2]; at 1.2 µM -2% | [2]; at 3.7 µM 1% | [2]; at 11.0 µM -4% | [2]; at 33.0 µM 1% | [2]; at 100.0 µM -3% | [3]; at 1.2 µM 4% | [3]; at 3.7 µM 7% | [3]; at 11.0 µM 11% | [3]; at 33.0 µM 14% | [3]; at 100.0 µM 18% | [5]; at 1.2 µM -3% | [5]; at 3.7 µM -2% | [5]; at 11.0 µM -4% | [5]; at 33.0 µM -3% | [5]; at 100.0 µM -2% | [6]; at 1.2 µM 0% | [6]; at 3.7 µM -8% | [6]; at 11.0 µM -1% | [6]; at 33.0 µM -2% | [6]; at 100.0 µM 1% | [7]; at 1.2 µM -2% | [7]; at 3.7 µM -2% | [7]; at 11.0 µM -5% | [7]; at 33.0 µM 1% | [7]; at 100.0 µM -2% | [8]; at 1.2 µM 2% | [8]; at 3.7 µM -1% | [8]; at 11.0 µM 0% | [8]; at 33.0 µM -1% | [8]; at 100.0 µM 0% | [9]; at 1.2 µM -2% | [9]; at 3.7 µM -2% | [9]; at 11.0 µM 0% | [9]; at 33.0 µM 2% | [9]; at 100.0 µM 2%

C/C(=N/NC(N)=O)C(C)(OCC(C)C)c1ccccc1 (stereo not given)
inactive: [2]; at 1.2 µM -2% | [2]; at 3.7 µM 2% | [2]; at 11.0 µM -2% | [2]; at 33.0 µM -3% | [2]; at 100.0 µM -2% | [3]; at 1.2 µM -1% | [3]; at 3.7 µM -3% | [3]; at 11.0 µM -3% | [3]; at 33.0 µM -4% | [3]; at 100.0 µM -2% | [4]; at 1.2 µM -5% | [4]; at 3.7 µM -2% | [4]; at 11.0 µM -1% | [4]; at 33.0 µM -1% | [4]; at 100.0 µM -2% | [5]; at 1.2 µM -1% | [5]; at 3.7 µM 1% | [5]; at 11.0 µM 2% | [5]; at 33.0 µM 0% | [5]; at 100.0 µM 2% | [6]; at 1.2 µM -3% | [6]; at 3.7 µM -6% | [6]; at 11.0 µM -1% | [6]; at 33.0 µM -3% | [6]; at 100.0 µM -8% | [7]; at 1.2 µM -1% | [7]; at 3.7 µM 0% | [7]; at 11.0 µM -1% | [7]; at 33.0 µM 0% | [7]; at 100.0 µM -2% | [8]; at 1.2 µM -1% | [8]; at 3.7 µM -4% | [8]; at 11.0 µM -3% | [8]; at 33.0 µM -2% | [8]; at 100.0 µM -1% | [9]; at 1.2 µM -3% | [9]; at 3.7 µM -4% | [9]; at 11.0 µM -5% | [9]; at 33.0 µM -3% | [9]; at 100.0 µM -1% | [10]; at 1.2 µM -1% | [10]; at 3.7 µM -5% | [10]; at 11.0 µM -5% | [10]; at 33.0 µM -4% | [10]; at 100.0 µM -7%

Cc1ccc(S(=O)(=O)Oc2ccc(C(C)(C)C)cc2)cc1
inactive: [1]; at 1.2 µM 1% | [1]; at 3.7 µM 5% | [1]; at 11.0 µM 10% | [1]; at 33.0 µM 2% | [1]; at 100.0 µM 11% | [2]; at 1.2 µM -2% | [2]; at 3.7 µM -6% | [2]; at 11.0 µM -10% | [2]; at 33.0 µM -13% | [2]; at 100.0 µM -15% | [3]; at 1.2 µM -1% | [3]; at 3.7 µM 9% | [3]; at 11.0 µM 18% | [3]; at 33.0 µM 13% | [3]; at 100.0 µM 20% | [4]; at 1.2 µM -5% | [4]; at 3.7 µM -3% | [4]; at 11.0 µM -7% | [4]; at 33.0 µM -12% | [4]; at 100.0 µM -11% | [5]; at 1.2 µM 1% | [5]; at 3.7 µM 6% | [5]; at 11.0 µM 6% | [5]; at 33.0 µM -5% | [5]; at 100.0 µM -4% | [6]; at 1.2 µM -2% | [6]; at 3.7 µM -7% | [6]; at 11.0 µM -13% | [6]; at 33.0 µM -20% | [6]; at 100.0 µM -20% | [7]; at 1.2 µM -3% | [7]; at 3.7 µM -9% | [7]; at 11.0 µM -8% | [7]; at 33.0 µM -6% | [7]; at 100.0 µM -15% | [8]; at 1.2 µM -3% | [8]; at 3.7 µM 1% | [8]; at 11.0 µM 1% | [8]; at 33.0 µM -7% | [8]; at 100.0 µM -2% | [9]; at 1.2 µM -2% | [9]; at 3.7 µM 19% | [9]; at 11.0 µM -7% | [9]; at 33.0 µM 1% | [9]; at 100.0 µM 4% | [10]; at 1.2 µM -2% | [10]; at 3.7 µM 3% | [10]; at 11.0 µM 1% | [10]; at 33.0 µM -5% | [10]; at 100.0 µM 8%
